Laboratory results from PMC3673817.
These are yes or no findings as the source states them, for the method shown. In cells and extracts the contact can be indirect. Some results given as binding are weak or reduced against the parent protein; the word gives no strength.

By UniProt entry, the sequences of proteins in these tests, tags left out.
UniProt Q15075: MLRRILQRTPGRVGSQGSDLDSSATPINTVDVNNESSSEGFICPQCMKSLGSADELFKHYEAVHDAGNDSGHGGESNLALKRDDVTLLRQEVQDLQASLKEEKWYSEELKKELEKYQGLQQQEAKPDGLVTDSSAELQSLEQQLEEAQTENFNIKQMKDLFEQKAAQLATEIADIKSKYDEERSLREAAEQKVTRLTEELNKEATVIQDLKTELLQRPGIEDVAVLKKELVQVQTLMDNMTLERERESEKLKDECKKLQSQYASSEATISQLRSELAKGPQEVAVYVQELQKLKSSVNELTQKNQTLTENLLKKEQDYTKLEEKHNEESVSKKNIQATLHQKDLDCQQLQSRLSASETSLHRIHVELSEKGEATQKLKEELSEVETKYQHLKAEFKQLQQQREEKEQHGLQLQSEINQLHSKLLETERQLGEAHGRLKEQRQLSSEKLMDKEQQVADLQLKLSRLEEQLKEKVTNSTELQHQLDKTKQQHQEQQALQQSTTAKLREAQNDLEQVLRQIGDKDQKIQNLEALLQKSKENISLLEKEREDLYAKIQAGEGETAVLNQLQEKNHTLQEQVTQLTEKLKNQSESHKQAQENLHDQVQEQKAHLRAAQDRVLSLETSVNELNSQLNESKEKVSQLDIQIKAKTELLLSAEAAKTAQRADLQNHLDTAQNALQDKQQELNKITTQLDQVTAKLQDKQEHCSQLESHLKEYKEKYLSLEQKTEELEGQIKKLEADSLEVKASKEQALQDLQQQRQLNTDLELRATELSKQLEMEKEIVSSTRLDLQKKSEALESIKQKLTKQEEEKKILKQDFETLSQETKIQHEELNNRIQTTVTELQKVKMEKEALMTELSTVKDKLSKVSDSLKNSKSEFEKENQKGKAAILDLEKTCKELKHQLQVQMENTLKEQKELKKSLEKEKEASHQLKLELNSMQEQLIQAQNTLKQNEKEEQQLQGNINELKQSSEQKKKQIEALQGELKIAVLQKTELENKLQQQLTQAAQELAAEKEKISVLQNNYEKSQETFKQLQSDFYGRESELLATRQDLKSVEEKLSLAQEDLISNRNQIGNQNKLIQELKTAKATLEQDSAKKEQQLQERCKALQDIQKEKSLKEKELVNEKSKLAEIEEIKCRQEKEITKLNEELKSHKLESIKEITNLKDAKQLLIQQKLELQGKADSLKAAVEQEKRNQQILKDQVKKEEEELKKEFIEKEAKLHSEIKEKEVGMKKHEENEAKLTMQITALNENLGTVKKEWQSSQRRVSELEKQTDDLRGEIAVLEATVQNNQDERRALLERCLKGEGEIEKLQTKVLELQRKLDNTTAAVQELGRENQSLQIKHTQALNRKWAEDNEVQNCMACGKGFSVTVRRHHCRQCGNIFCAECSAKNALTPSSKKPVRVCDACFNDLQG

Target: unmodified EEA1 (in the co-precipitation with p97) (UniProt Q15075)
Test: co-IP; data not shown; p97 co-precipitated with modified and unmodified EEA1

In the case of p97 ATPase (from UniProt P55072 1-806), the binding was “binds”.
